These results are taken from paper PMC5342507.

Protein sequences, listed by entry. Tags and fused reporters are not part of them.
UniProt Q8TEK3: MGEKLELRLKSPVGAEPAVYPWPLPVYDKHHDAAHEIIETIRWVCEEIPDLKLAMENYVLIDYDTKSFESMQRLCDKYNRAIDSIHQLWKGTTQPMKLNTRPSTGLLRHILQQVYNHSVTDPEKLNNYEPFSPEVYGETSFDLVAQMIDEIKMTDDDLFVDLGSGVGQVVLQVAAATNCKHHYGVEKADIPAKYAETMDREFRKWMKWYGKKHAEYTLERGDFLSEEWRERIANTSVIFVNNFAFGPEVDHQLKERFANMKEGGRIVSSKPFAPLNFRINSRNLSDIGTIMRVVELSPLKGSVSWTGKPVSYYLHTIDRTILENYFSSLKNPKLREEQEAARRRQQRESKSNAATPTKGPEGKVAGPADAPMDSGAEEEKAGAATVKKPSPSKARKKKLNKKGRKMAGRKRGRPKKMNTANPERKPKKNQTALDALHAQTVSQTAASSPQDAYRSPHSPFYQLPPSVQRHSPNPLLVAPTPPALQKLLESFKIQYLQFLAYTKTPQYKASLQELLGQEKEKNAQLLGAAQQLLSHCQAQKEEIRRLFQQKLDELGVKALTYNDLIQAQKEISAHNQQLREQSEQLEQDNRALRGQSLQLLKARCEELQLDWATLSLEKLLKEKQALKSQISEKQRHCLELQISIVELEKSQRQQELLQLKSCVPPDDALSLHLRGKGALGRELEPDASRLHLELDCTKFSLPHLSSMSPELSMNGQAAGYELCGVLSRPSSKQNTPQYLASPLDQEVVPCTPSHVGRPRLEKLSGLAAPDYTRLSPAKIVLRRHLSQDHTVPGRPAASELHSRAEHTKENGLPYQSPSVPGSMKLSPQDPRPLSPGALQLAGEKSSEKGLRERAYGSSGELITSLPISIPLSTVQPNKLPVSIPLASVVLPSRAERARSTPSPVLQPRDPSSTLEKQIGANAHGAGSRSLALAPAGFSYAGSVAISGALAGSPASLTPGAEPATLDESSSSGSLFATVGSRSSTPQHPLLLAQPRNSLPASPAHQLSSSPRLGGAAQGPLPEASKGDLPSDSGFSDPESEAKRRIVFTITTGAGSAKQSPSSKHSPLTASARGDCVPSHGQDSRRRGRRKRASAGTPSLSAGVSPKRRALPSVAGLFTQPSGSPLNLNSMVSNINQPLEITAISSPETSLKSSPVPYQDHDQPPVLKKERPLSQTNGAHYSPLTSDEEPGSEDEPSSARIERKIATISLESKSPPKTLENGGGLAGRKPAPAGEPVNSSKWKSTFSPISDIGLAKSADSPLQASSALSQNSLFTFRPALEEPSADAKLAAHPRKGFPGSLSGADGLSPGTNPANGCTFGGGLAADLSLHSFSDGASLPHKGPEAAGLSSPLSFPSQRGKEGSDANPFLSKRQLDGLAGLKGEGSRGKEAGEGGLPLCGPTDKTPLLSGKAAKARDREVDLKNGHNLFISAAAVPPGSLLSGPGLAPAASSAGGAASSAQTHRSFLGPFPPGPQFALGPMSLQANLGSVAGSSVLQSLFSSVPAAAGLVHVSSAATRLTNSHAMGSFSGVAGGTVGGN
UniProt P17542: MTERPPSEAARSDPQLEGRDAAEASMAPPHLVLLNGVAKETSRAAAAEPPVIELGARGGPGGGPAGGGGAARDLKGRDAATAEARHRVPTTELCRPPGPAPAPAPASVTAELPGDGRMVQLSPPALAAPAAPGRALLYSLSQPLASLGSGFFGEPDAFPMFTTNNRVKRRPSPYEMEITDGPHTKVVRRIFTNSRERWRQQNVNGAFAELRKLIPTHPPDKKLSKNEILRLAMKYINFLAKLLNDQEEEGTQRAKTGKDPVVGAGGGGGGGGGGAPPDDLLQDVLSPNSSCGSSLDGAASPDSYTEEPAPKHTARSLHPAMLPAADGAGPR

Test [1] has as its target T1, transcription factor ETS-1 (human (endogenous in HUVEC)) (UniProt P14921).
T1 sequence: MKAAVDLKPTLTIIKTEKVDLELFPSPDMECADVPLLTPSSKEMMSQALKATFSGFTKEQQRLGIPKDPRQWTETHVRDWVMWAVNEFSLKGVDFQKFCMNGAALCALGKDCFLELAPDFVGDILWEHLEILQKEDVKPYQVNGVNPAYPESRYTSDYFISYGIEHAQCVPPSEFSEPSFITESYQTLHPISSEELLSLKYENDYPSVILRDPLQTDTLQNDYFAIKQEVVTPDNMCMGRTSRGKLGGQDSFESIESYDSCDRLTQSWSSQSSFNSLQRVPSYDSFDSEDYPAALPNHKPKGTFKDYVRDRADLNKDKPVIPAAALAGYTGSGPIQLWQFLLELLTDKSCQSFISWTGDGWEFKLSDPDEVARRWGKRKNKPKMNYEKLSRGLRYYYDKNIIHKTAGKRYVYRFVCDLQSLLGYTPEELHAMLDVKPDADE
The experiment in a line: co-IP; total proteins from HUVECs; immunoprecipitation with antibodies against the endogenous proteins, then immunoblotting.

Test [2] deals with DOT1L (DOT1-like histone H3K79 methyltransferase) (human (endogenous in HUVEC)) (UniProt Q8TEK3). Described as above.

Results are given in words; binding and its absence hold for the method and conditions named. Binding seen in cells or lysates may run through a third protein. Some binding calls cover weakened binding; strength is not graded here.

For “DOT1L (DOT1-like histone H3K79 methyltransferase) (from UniProt Q8TEK3 1-1537)”, in test [1], the binding result was “binds”. TAL-1 (from UniProt P17542 1-331): in test [2], the binding result is given as “no binding”.
